In patent US7947727B2, “Compounds” (GlaxoGroupLimited, priority 2006, dated 2011):
Some entries share one result that the patent states for a list of compounds.

Molecular target: T1, glucocorticoid receptor (Homo sapiens, UniProt P04150)
T1 construct: a partially purified full length glucocorticoid receptor
T1 sequence (P04150 1-777): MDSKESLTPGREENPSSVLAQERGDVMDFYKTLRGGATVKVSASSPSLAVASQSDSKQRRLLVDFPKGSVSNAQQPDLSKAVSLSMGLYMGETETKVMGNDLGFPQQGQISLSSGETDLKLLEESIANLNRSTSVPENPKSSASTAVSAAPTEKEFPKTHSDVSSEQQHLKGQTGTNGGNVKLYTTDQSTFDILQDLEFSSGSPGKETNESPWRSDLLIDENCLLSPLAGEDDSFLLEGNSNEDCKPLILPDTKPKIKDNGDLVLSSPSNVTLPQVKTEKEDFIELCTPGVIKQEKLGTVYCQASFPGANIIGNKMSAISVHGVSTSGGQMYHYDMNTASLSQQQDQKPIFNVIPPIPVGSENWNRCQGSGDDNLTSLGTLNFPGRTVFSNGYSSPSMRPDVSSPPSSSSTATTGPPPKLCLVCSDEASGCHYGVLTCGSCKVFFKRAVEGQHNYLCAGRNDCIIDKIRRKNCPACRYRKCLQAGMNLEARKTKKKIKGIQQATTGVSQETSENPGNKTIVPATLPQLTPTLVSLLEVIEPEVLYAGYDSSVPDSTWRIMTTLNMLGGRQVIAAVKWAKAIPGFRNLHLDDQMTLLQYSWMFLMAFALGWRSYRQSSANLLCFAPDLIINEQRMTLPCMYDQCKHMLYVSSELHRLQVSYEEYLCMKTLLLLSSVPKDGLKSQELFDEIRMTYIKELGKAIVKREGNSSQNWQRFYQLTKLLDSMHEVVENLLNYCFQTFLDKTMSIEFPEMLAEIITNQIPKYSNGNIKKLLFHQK
Experiment: Glucocorticoid Receptor Binding Assay (fluorescence polarisation competition)
Details: competition with Alexa 555 fluorescently-labelled dexamethasone derivative; partially purified full length glucocorticoid receptor; 2 hours room temperature

SMILES	glucocorticoid binding pIC50
CCN(CC(O)(CNc1cccc2c1cnn2-c1ccc(F)cc1)C(F)(F)F)C(=O)c1c(F)cccc1Cl (stereo not drawn) [Example 54, 2-Chloro-N-ethyl-6-fluoro-N-[3,3,3-trifluoro-2-({[1-(4-fluorophenyl)-1H-indazol-4-yl]amino}methyl)-2-hydroxypropyl]benzamide]	≥ 7
CCCN(CC(O)(CNc1cccc2c1cnn2-c1ccc(F)cc1)C(F)(F)F)C(=O)c1ccccc1F (stereo not drawn) [Example 10, 2-Fluoro-N-propyl-N-[3,3,3-trifluoro-2-({[1-(4-fluorophenyl)-1H-indazol-4-yl]amino}methyl)-2-hydroxypropyl]benzamide]	≥ 7
CCN(CC(O)(CNc1cc(C)cc2c1cnn2-c1ccccc1)C(F)(F)F)C(=O)c1ccccc1Cl (stereo not drawn) [Example 29, 2-Chloro-N-ethyl-N-(3,3,3-trifluoro-2-hydroxy-2-{[(6-methyl-1-phenyl-1H-indazol-4-yl)amino]methyl}propyl)benzamide]	≥ 7
CCCN(CC(O)(CNc1cccc2c1cnn2-c1ccc(F)cc1)C(F)(F)F)C(=O)c1ccccc1C (stereo not drawn) [Example 9, 2-Methyl-N-propyl-N-[3,3,3-trifluoro-2-({[1-(4-fluorophenyl)-1H-indazol-4-yl]amino}methyl)-2-hydroxypropyl]benzamide]	≥ 7
CCN(CC(O)(CNc1cc(C)cc2c1cnn2-c1ccccc1)C(F)(F)F)C(=O)c1ccccc1F (stereo not drawn) [Example 12, N-Ethyl-2-fluoro-N-(3,3,3-trifluoro-2-hydroxy-2-{[(6-methyl-1-phenyl-1H-indazol-4-yl)amino]methyl}propyl)benzamide]	≥ 7
CCN(CC(O)(CNc1cccc2c1cnn2-c1ccccc1)C(F)(F)F)C(=O)c1ccccc1F (stereo not drawn) [Example 3, N-Ethyl-2-fluoro-N-(3,3,3-trifluoro-2-hydroxy-2-{[(1-phenyl-1H-indazol-4-yl)amino]methyl}propyl)benzamide]	≥ 7
CCCN(CC(O)(CNc1cc(C)cc2c1cnn2-c1ccc(F)cc1)C(F)(F)F)C(=O)c1ccccc1C (stereo not drawn) [Example 23, 2-Methyl-N-propyl-N-[3,3,3-trifluoro-2-({[1-(4-fluorophenyl)-6-methyl-1H-indazol-4-yl]amino}methyl)-2-hydroxypropyl]benzamide]	≥ 7
CCN(CC(O)(CNc1cccc2c1cnn2-c1ccccc1)C(F)(F)F)C(=O)c1ccccc1C (stereo not drawn) [Example 2, N-Ethyl-2-methyl-N-(3,3,3-trifluoro-2-hydroxy-2-{[(1-phenyl-1H-indazol-4-yl)amino]methyl}propyl)benzamide]	≥ 7
CCCN(CC(O)(CNc1cccc2c1cnn2-c1ccccc1)C(F)(F)F)C(=O)c1ccccc1 (stereo not drawn) [Example 32, N-Propyl-N-(3,3,3-trifluoro-2-hydroxy-2-{[(1-phenyl-1H-indazol-4-yl)amino]methyl}propyl)benzamide]	≥ 7
CCN(CC(O)(CNc1cc(C)cc2c1cnn2-c1ccc(F)cc1)C(F)(F)F)C(=O)c1ccsc1 (stereo not drawn) [Example 21, N-Ethyl-N-[3,3,3-trifluoro-2-({[1-(4-fluorophenyl)-6-methyl-1H-indazol-4-yl]amino}methyl)-2-hydroxypropyl]-3-thionhenecarboxamide]	≥ 7
CCN(CC(O)(CNc1cccc2c1cnn2-c1ccccc1)C(F)(F)F)C(=O)c1ccccc1Cl (stereo not drawn) [Example 4, 2-Chloro-N-ethyl-N-(3,3,3-trifluoro-2-hydroxy-2-{[(1-phenyl-1H-indazol-4-yl)amino]methyl}propyl)benzamide]	≥ 7
CCN(CC(O)(CNc1cccc2c1cnn2-c1ccccc1)C(F)(F)F)C(=O)c1cccs1 (stereo not drawn) [Example 30, N-Ethyl-N-(3,3,3-trifluoro-2-hydroxy-2-{[(1-phenyl-1H-indazol-4-yl)amino]methyl}propyl)-2-thiophenecarboxamide]	≥ 7
CCN(CC(O)(CNc1cc(C)cc2c1cnn2-c1ccc(F)cc1)C(F)(F)F)C(=O)c1c(Cl)cccc1Cl (stereo not drawn) [Example 53, 2,6-Dichloro-N-ethyl-N-[3,3,3-trifluoro-2-({[1-(4-fluorophenyl)-6-methyl-1H-indazol-4-yl]amino}methyl)-2-hydroxypropyl]benzamide]	≥ 7
CCN(CC(O)(CNc1cc(C)cc2c1cnn2-c1ccc(F)cc1)C(F)(F)F)C(=O)c1c(F)cccc1F (stereo not drawn) [Example 51, N-ethyl-2,6-difluoro-N-[3,3,3-trifluoro-2-({[1-(4-fluorophenyl)-6-methyl-1H-indazol-4-yl]amino}methyl)-2-hydroxypropyl]benzamide]	≥ 7
CCCN(CC(O)(CNc1cccc2c1cnn2-c1ccccc1)C(F)(F)F)C(=O)c1ccccc1C (stereo not drawn) [Example 33, 2-Methyl-N-propyl-N-(3,3,3-trifluoro-2-hydroxy-2-{[(1-phenyl-1H-indazol-4-yl)amino]methy}propyl)benzamide]	≥ 7
CCN(CC(O)(CNc1cccc2c1cnn2-c1ccc(F)cc1)C(F)(F)F)C(=O)c1ccccc1Cl (stereo not drawn) [Example 8, 2-Chloro-N-ethyl-N-[3,3,3-trifluoro-2-({[1-(4-fluorophenyl)-1H-indazol-4-yl]amino}methyl)-2-hydroxypropyl]benzamide]	≥ 7
CCN(CC(O)(CNc1cc(C)cc2c1cnn2-c1ccc(F)cc1)C(F)(F)F)C(=O)c1ccccc1C (stereo not drawn) [Example 17, N-Ethyl-2-methyl-N-[3,3,3-trifluoro-2-({[1-(4-fluorophenyl)-6-methyl-1H-indazol-4-yl]amino}methyl)-2-hydroxypropyl]benzamide]	≥ 7
CCN(CC(O)(CNc1cc(C)cc2c1cnn2-c1ccc(F)cc1)C(F)(F)F)C(=O)c1c(C)cccc1Cl (stereo not drawn) [Example 57, 2-Chloro-N-ethyl-6-methyl-N-[3,3,3-trifluoro-2-({[1-(4-fluorophenyl)-6-methyl-1H-indazol-4-yl]amino}methyl)-2-hydroxypropyl]benzamide]	≥ 7
CCCN(CC(O)(CNc1cc(C)cc2c1cnn2-c1ccc(F)cc1)C(F)(F)F)C(=O)c1cccs1 (stereo not drawn) [Example 26, N-Propyl-N-[3,3,3-trifluoro-2-({[1-(4-fluorophenyl)-6-methyl-1H-indazol-4-yl]amino}methyl)-2-hydroxypropyl]-2-thiophenecarboxamide]	≥ 7
CCN(CC(O)(CNc1cc(C)cc2c1cnn2-c1ccc(F)cc1)C(F)(F)F)C(=O)c1ccccc1Cl (stereo not drawn) [Example 19, 2-Chloro-N-ethyl-N-[3,3,3-trifluoro-2-({[1-(4-fluorophenyl)-6-methyl-1H-indazol-4-yl]amino}methyl)-2-hydroxypropyl]benzamide]	≥ 7
CCN(CC(O)(CNc1cc(C)cc2c1cnn2-c1ccc(F)cc1)C(F)(F)F)C(=O)c1c(F)cccc1C(F)(F)F (stereo not drawn) [Example 59, N-Ethyl-2-fluoro-N-[3,3,3-trifluoro-2-({[1-(4-fluorophenyl)-6-methyl-1H-indazol-4-yl]amino}methyl)-2-hydroxypropyl]-6-(trifluoromethyl)benzamide]	≥ 7
CCCN(CC(O)(CNc1cccc2c1cnn2-c1ccc(F)cc1)C(F)(F)F)C(=O)c1ccsc1 (stereo not drawn) [Example 43, N-Propyl-N-[3,3,3-trifluoro-2-({[1-(4-fluorophenyl)-1H-indazol-4-yl]amino}methyl)-2-hydroxypropyl]-3-thiophenecarboxamide]	≥ 7
CCN(CC(O)(CNc1cc(C)cc2c1cnn2-c1ccc(F)cc1)C(F)(F)F)C(=O)c1ccccc1 (stereo not drawn) [Example 16, N-Ethyl-N-[3,3,3-trifluoro-2-({[1-(4-fluorophenyl)-6-methyl-1H-indazol-4-yl]amino}methyl)-2-hydroxypropyl]benzamide]	≥ 7
CCCN(CC(O)(CNc1cc(C)cc2c1cnn2-c1ccc(F)cc1)C(F)(F)F)C(=O)c1ccccc1F (stereo not drawn) [Example 24, 2-Fluoro-N-propyl-N-[3,3,3-trifluoro-2-({[1-(4-fluorophenyl)-6-methyl-1H-indazol-4-yl]amino}methyl)-2-hydroxypropyl]benzamide]	≥ 7
CCCN(CC(O)(CNc1cc(C)cc2c1cnn2-c1ccc(F)cc1)C(F)(F)F)C(=O)c1ccccc1 (stereo not drawn) [Example 22, N-Propyl-N-[3,3,3-trifluoro-2-({[1-(4-fluorophenyl)-6-methyl-1H-indazol-4-yl]amino}methyl)-2-hydroxypropyl]benzamide]	≥ 7
CCN(CC(O)(CNc1cccc2c1cnn2-c1ccc(F)cc1)C(F)(F)F)C(=O)c1c(C)cccc1Cl (stereo not drawn) [Example 56, 2-Chloro-N-ethyl-6-methyl-N-[3,3,3-trifluoro-2-({[1-(4-fluorophenyl)-1H-indazol-4-yl]amino}methyl)-2-hydroxypropyl]benzamide]	≥ 7
CCCN(CC(O)(CNc1cccc2c1cnn2-c1ccc(F)cc1)C(F)(F)F)C(=O)c1ccccc1 (stereo not drawn) [Example 40, N-Propyl-N-[3,3,3-trifluoro-2-({[1-(4-fluorophenyl)-1H-indazol-4-yl]amino}methyl)-2-hydroxypropyl]benzamide]	≥ 7
